# Measurements published in article PMC11334571, “EpCAM-targeted betulinic acid analogue nanotherapy improves therapeutic efficacy and induces anti-tumorigenic immune response in colorectal cancer tumor microenvironment” (Journal of Biomedical Science, 2024).
# The chains behind the UniProt entries cited, without tags or fusion partners. Residues count along the entry.
# UniProt P16422, 24-265: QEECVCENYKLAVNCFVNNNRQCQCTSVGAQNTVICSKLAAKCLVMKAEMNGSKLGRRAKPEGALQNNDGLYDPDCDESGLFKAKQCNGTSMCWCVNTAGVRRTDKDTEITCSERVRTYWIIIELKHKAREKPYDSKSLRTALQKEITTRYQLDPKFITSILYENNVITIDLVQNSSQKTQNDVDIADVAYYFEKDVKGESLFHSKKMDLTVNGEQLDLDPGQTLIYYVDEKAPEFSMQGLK
# The exact form of at least one protein or probe is not confirmed.
# Target: EpCAM (epithelial cell adhesion molecule) (UniProt P16422)
# Assay: binding assay
# Conditions: phosphorothioate backbone and 3'-NH2 as used here; cited Kd may refer to the unmodified DNA; single-stranded DNA
sequence,measurement,value
ATCCAGAGTGACGCAGCATGCGGCACACACTTCTATCTTTGCGGAACTCCTGCGGCTCTGGACACGGTGGCTTAGT [EpCAM aptamer (Apt)],Kd,12 nM
